For one compound, Ki results are on record in ChEMBL document CHEMBL1134623, “Design and synthesis of a series of (2R)-N(4)-hydroxy-2-(3-hydroxybenzyl)-N(1)- [(1S,2R)-2-hydroxy-2,3-dihydro-1H-inden-1-yl]butanediamide derivatives as potent, selective, and orally bioavailable aggrecanase inhibitors” (J Med Chem, 2001).

The chains behind the UniProt entries cited, without tags or fusion partners. Where a name states a change or a piece, a line headed by the entry shows the natural chain unless it says otherwise.
UniProt P08253: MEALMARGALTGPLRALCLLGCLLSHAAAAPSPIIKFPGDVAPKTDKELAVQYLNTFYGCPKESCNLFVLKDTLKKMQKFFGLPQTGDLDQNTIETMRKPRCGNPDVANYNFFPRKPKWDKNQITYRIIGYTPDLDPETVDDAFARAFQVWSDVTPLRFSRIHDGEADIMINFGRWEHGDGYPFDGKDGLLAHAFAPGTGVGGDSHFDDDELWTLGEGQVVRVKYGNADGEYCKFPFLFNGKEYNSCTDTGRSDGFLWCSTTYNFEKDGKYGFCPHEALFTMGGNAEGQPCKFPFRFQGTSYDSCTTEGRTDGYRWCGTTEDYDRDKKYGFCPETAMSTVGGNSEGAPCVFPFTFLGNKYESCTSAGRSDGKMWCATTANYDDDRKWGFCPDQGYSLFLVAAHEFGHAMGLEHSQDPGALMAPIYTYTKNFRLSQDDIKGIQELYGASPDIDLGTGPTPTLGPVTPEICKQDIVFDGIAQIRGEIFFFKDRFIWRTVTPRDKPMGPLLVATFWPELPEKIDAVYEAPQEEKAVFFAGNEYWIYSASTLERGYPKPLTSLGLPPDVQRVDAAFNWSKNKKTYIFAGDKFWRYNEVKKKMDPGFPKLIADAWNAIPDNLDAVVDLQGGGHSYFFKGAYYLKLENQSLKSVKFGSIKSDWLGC

The experiment has as its target 72 kDa type IV collagenase (Homo sapiens, UniProt P08253). Put plainly: Inhibition of matrix metalloprotease-2.

SMILES strings stand for the structures.

Take `CNC(=O)[C@H](Cc1ccc(OC)cc1)NC(=O)[C@@H](CC(=O)NO)CC(C)C`: the inhibitory constant (Ki) (in general, the equilibrium dissociation constant of an inhibitor or competing ligand from its target) is less than 1 nM.
